Experimental data from the M2OR odorant receptor database.
Only a part is listed here, and it is no random draw. Calls are pooled over several reports, among them a noisy single-well screen. The list shows a part of the results.

Experiments:
Settings in all cases: stereoisomer not certain
[1] = system: T1, OR5T2
T1 sequence (whole entry): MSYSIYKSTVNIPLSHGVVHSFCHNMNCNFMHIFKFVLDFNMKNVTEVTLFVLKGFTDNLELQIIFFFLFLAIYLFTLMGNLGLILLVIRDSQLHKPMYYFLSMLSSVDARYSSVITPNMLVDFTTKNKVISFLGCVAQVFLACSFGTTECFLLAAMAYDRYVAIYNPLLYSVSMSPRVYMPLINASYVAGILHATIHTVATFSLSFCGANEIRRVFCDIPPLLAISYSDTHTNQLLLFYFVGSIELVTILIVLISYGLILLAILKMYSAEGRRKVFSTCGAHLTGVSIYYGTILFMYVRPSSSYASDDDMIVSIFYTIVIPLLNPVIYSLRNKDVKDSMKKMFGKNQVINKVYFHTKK
Method in brief: (§1)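 Values were gathered from published papers (main text and supplementary material), with extra details requested from the original authors when needed, and checked for typos and inconsistencies. Each receptor–molecule pair is called responsive (active) if the original authors judged the measured signal statistically different from baseline, and non-responsive (inactive) otherwise. Assay methods varied by source, often transient mammalian cell-line luciferase assays. Recorded details include cell line, G-protein, co-transfected protein and tags.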

[2] = system: T2, OR5T2; remark: listed apart in the source
T2 sequence (whole entry): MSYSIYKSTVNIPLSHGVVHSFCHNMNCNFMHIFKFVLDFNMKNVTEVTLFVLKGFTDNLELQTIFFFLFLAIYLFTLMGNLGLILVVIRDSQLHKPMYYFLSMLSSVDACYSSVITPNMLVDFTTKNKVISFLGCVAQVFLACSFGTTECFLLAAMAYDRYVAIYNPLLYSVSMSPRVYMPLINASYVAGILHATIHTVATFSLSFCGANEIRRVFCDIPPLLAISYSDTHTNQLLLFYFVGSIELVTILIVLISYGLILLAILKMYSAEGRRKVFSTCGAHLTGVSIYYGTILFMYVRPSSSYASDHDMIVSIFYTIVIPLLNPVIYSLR
Method in brief: as §1

[3] = system: T3, OR5T3
T3 sequence (whole entry): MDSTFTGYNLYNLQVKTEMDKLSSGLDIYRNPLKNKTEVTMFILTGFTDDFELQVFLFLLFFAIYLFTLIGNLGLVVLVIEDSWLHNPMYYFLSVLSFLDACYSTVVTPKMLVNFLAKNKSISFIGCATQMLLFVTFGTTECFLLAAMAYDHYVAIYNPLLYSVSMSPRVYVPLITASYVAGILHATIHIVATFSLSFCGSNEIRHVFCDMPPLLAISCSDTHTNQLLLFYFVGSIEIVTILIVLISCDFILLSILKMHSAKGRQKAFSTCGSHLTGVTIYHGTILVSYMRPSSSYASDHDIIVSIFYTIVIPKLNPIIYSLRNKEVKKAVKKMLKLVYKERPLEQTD
Method in brief: as §1

[4] = biological target: T4, OR5V1 (Homo sapiens) (UniProt Q9UGF6)
T4 sequence (whole entry): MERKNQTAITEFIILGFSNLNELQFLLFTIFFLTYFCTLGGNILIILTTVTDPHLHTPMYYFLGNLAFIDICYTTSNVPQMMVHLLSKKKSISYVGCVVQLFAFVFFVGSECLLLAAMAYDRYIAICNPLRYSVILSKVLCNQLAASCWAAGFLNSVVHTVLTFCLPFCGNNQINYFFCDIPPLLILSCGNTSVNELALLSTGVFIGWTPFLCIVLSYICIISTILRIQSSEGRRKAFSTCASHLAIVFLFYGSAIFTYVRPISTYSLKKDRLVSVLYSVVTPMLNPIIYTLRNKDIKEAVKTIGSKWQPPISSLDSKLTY
Method in brief: as §1

[5] = system: T5, OR5W2
T5 sequence (whole entry): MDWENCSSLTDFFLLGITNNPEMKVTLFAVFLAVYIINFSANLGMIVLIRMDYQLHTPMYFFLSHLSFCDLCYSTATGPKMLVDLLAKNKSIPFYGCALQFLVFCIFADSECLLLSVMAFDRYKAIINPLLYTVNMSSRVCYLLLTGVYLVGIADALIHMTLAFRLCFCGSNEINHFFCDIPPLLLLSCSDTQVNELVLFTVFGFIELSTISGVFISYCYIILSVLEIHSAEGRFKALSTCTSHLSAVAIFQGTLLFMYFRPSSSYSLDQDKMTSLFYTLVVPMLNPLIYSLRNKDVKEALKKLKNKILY
Method in brief: as §1

[6] = biological target: T6, OR6A2 (Homo sapiens) (UniProt O95222)
T6 sequence (whole entry): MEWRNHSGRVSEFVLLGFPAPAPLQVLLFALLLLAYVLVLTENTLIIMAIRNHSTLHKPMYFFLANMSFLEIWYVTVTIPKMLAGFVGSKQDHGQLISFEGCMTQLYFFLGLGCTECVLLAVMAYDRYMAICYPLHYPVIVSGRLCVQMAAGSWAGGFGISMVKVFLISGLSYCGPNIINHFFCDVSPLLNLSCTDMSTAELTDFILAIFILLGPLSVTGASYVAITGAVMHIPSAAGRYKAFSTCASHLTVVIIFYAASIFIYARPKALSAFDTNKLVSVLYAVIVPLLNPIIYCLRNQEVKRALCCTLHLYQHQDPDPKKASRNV
Method in brief: as §1

[7] = system: T7, OR6B1
T7 sequence (whole entry): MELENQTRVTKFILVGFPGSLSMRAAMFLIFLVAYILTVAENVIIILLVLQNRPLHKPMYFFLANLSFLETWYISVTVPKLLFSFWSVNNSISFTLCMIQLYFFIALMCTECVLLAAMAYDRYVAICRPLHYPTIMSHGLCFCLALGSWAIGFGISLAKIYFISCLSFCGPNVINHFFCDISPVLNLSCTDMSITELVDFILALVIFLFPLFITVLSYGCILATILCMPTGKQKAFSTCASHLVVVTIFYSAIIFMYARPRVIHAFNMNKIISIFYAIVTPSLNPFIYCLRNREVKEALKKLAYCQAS
Method in brief: as §1

[8] = system: T8, OR6B2
T8 sequence (whole entry): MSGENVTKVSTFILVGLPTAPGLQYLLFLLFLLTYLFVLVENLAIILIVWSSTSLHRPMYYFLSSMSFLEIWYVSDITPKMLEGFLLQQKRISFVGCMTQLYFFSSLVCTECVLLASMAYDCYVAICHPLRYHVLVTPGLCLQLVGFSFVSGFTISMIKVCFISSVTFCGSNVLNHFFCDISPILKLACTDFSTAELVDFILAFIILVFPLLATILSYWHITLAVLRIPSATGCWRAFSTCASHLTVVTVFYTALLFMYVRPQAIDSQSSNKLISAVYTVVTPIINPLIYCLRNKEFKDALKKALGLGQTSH
Method in brief: as §1

[9] = system: T9, OR6B3
T9 sequence (whole entry): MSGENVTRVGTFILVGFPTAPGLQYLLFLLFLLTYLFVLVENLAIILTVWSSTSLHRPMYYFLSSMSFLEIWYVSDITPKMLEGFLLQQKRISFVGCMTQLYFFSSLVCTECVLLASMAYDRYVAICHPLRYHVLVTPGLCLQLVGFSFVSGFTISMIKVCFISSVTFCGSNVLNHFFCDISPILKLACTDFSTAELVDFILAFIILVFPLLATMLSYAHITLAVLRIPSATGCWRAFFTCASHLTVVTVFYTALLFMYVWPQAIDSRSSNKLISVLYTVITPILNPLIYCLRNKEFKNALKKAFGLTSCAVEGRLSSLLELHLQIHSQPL
Method in brief: as §1

[10] = system: T10, OR6C1
T10 sequence (whole entry): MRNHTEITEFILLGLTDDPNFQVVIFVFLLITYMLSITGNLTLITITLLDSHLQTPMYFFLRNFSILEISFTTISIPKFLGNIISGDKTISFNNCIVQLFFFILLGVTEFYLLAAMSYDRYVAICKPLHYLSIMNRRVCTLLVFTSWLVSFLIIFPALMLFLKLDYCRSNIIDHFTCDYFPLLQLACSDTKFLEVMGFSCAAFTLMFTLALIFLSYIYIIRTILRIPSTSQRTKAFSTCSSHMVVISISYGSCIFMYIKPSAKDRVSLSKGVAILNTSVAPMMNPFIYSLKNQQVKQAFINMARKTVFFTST
Method in brief: as §1

Measured: odorant receptor agonist call

CCC(C)=O
inactive: [1] | [2] | [3] | [4] | [5] | [6] | [7] | [8] | [9] | [10]
